Source: patent US12269822B2, “Anthelminthic heterocyclic compounds” (BOEHRINGER INGELHEIM ANIMAL HEALTH USA INC., priority 2018, dated 2025)
Some entries share one result that the patent states for a list of compounds.

Tested on: microfilariae of Dirofilaria immitis
Test: Dirofilaria immitis microfilariae motility assay
Format: cell-based
Conditions: motility of microfilaria compared to DMSO-only control wells; three days at 37° C. and 5% CO2; RPMI media; EC50 values not given

Structure (SMILES)	activity against Dirofilaria immitis
CCc1c(C(=O)N[C@H]2CCOc3ccccc32)ccc2c(-c3cc(Cl)cc(Cl)c3)c(C)nn12 [Compound 14]	showed activity
Cc1nn2c(N(C)C)c(C(=O)N[C@H]3CCOc4ccccc43)ccc2c1-c1c(Cl)cc(F)cc1Cl [Compound 33]	showed activity
C=C(C)c1c(C(=O)N[C@H]2CCOc3ccccc32)ccc2c(-c3ccc(C(F)(F)F)cc3)c(C)nn12 [Compound 3]	showed activity
Cc1nn2c(C(C)C)c(C(=O)N[C@H]3CCOc4ccccc43)ccc2c1-c1ccc(C(F)(F)F)cc1 [Compound 162]	showed activity
Cc1nn2c(N(C)C)c(C(=O)N[C@H]3CCOc4ccccc43)ccc2c1-c1cc(Cl)cc(Cl)c1 [Compound 15]	showed activity
Cc1nn2c(N3CCOCC3)c(C(=O)N[C@H]3CCOc4ccccc43)ccc2c1-c1c(F)cccc1Cl [Compound 158]	showed activity
Cc1nn2c(C(C)C)c(C(=O)N[C@H]3CCOc4ccccc43)ccc2c1-c1c(F)cccc1F [Compound 161]	showed activity
Cc1nn2c(N3CCOCC3)c(C(=O)N[C@H]3CCOc4ccccc43)ccc2c1-c1ccc(C(F)(F)F)cc1 [Compound 159]	showed activity
Cc1nn2c(C(C)C)c(C(=O)N[C@H]3CCOc4ccccc43)ccc2c1-c1cccc(Cl)c1Cl [Compound 37]	showed activity
C=C(C)c1c(C(=O)N[C@H]2CCc3ccccc32)ccc2c(-c3c(F)cccc3Cl)c(C)nn12 [Compound 8]	showed activity
C=C(C)c1c(C(=O)N[C@H]2CCOc3ccccc32)ccc2c(-c3cc(Cl)cc(Cl)c3)c(C)nn12 [Compound 9]	showed activity
Cc1nn2c(C(C)C)c(C(=O)N[C@H]3CCc4c(F)cccc43)ccc2c1-c1c(F)cccc1F [Compound 113]	showed activity
Cc1nn2c(N3CCOCC3)cc(C(=O)N[C@H]3CCOc4ccccc43)cc2c1-c1cc(Cl)cc(Cl)c1 [Compound 10]	showed activity
Cc1nn2c(C(C)C)c(C(=O)N[C@H]3CCOc4ccccc43)ccc2c1-c1c(F)ccc(F)c1F [Compound 39]	showed activity
Cc1nn2c(N3CCOCC3)c(C(=O)NCc3ccccc3)ccc2c1-c1cc(Cl)cc(Cl)c1 [Compound 170]	showed activity
Cc1nn2c(N3CCOCC3)c(C(=O)N[C@H]3CCOc4ccccc43)ccc2c1-c1c(F)cccc1F [Compound 164]	showed activity

Structure (SMILES)	activity against Dirofilaria immitis
Cc1nn2c(N(C)C)c(COCN[C@H]3CCOc4ccccc43)ccc2c1-c1c(F)ccc(F)c1F [Compound 38]	showed activity
COc1ccc2c(c1)C(NC(=O)c1ccc3c(-c4c(F)cccc4F)c(C)nn3c1C(C)C)CC2 (stereo not shown) [Compound 124]	showed activity
Cc1cc(F)cc(C)c1-c1c(C)nn2c(C(C)C)c(C(=O)N[C@H]3CCOc4ccccc43)ccc12 [Compound 32]	showed activity
COC(C)c1c(C(=O)N[C@H]2CCOc3ccccc32)ccc2c(-c3cc(F)cc(F)c3)c(C)nn12 (stereo partly shown) [Compound 172]	showed activity
Cc1nn2c(C(C)C)c(C(=O)N[C@@H](C)c3ccccc3)ccc2c1-c1c(F)cccc1F [Compound 25]	showed activity
C=C(C)c1c(C(=O)N[C@H]2CCOc3ccccc32)ccc2c(-c3c(F)cccc3Cl)c(C)nn12 [Compound 2]	showed activity
Cc1cc(F)cc(C)c1-c1c(C)nn2c(N(C)C)c(C(=O)N[C@H]3CCOc4ccccc43)ccc12 [Compound 34]	showed activity
Cc1nn2c(C(C)C)c(C(=O)N[C@H]3CCOc4ccccc43)ccc2c1-c1cc(Cl)cc(Cl)c1 [Compound 156]	showed activity
Cc1nn2c(N3CCOCC3)c(C(=O)N[C@H]3CCOc4ccccc43)ccc2c1-c1cc(Cl)cc(Cl)c1 [Compound 157]	showed activity
Cc1nn2c(C(C)C)c(C(=O)N[C@H]3CCc4ccccc43)ccc2c1-c1cc(Cl)cc(Cl)c1 [Compound 20]	showed activity
Cc1nn2c(C(C)C)c(C(=O)N[C@H]3CCc4ccccc43)ccc2c1-c1c(F)cccc1F [Compound 165]	showed activity
Cc1nn2c(C(C)C)c(C(=O)N[C@H]3CCOc4ccccc43)ccc2c1-c1c(Cl)cc(F)cc1Cl [Compound 36]	showed activity
Cc1nn2c(N(C)C)c(C(=O)N[C@H]3CCOc4ccccc43)ccc2c1-c1cccc(Cl)c1Cl [Compound 35]	showed activity
C=C(C)c1c(C(=O)N[C@H]2CCc3ccccc32)ccc2c(-c3cc(Cl)cc(Cl)c3)c(C)nn12 [Compound 4]	showed activity
Cc1nn2c(C(C)C)c(C(=O)N[C@H]3CCOc4ccccc43)ccc2c1-c1c(F)cccc1Cl [Compound 168]	showed activity
